From publication PMC12040169 (PLOS Biology, 2025)
This is one part of the list.

Tested on: T1, CTL2-GFP (C. trachomatis L2/434/Bu, GFP-expressing)
T1 construct: L2/434/Bu, GFP-expressing
Set-up: species or system HeLa; Intracellular C. trachomatis growth in HeLa cells, bulk GFP fluorescence relative to DMSO
Conditions: bulk GFP, single well; 28.5 h, 10 µM; inhibitor

Compound | % of control remaining [%]
CCCc1[nH]nc(O)c1-c1ccc(OC)cc1 [CBK075135] | 123.832
C=CCn1c(-c2sc(NC(=O)c3cc4ccccc4s3)nc2C)n[nH]c1=S [CBK295303] | 133.115
O=C1COc2ccc(S(=O)(=O)NCCOc3ccccc3)cc2N1 [CBK268480] | 121.618
Cn1cc(CNCC2CCN(c3ccccc3)C2)c(-c2ccncc2)n1 (stereo not shown) [CBK306317] | 100.725
COC(=O)CC[C@H]1CNC(=O)[C@@H]2[C@@H](CCN2S(C)(=O)=O)N1C [CBK289019] | 111.115
Cc1ccccc1CN1CC[C@H]2[C@@H](C1)[C@H](c1ccsc1)CN2C(=O)c1ccccc1 [CBK285618] | 102.732
COc1ccccc1CNc1nccc(-n2ccc(C)n2)n1 [CBK288611] | 103.871
C(=C\c1nccnc1OC(c1ccccc1)c1ccccc1)/c1ccccc1 [CBK106878] | 133.401
O=C(O)CCC(=O)Nc1ccccc1C(=O)Nc1ccccc1 [CBK058571] | 114.753
O=C1N=C(NC2CCCCCC2)SC1CC(=O)N1CCCC1 (stereo not shown) [CBK063342] | 92.2054
Cc1ccnc(NCC2CCN(c3ccc4nnnn4n3)C2)c1 (stereo not shown) [CBK306348] | 138.403
Cc1cccc(C)c1NC(=O)CN1CCCN(c2nccc(OCC3COc4ccccc4O3)n2)CC1 (stereo not shown) [CBK083974] | 174.455
CSCCC(=O)Nc1ccc2ncccc2c1 [CBK159818] | 105.463
COc1ccc(CN2C(=S)N(c3ccc(Cl)cc3)[C@H]3[C@@H]2[C@H]2OC(=O)[C@@H]3C[C@H]2O)cc1 [CBK288935] | 110.384
Cc1sc2nc(C(C)N3CCN(Cc4ccco4)CC3)[nH]c(=O)c2c1C (stereo not shown) [CBK306066] | 116.359
c1ccc2c(c1)NC(c1ccncc1)n1nnnc1-2 (stereo not shown) [CBK288171] | 120.685
CCc1c(C)nc2ccccc2c1SCCOC(=O)Nc1ccc(OC)cc1 [CBK155554T] | 103.279
O=C1c2cccc3cccc(c23)C(=O)N1CCN1CCN(S(=O)(=O)c2ccccc2[N+](=O)[O-])CC1 [CBK262530] | 95.9936
COc1ccc(NC(=O)CC2NC3CCCCC3NC2=O)cc1 (stereo not shown) [CBK266488] | 112.138
CCCCN(C(C)=O)c1c(CC)nc2ccc(C(=O)NCc3ccccc3OC)cn12 [CBK145761] | 105.875
CCCNC(=O)c1ccc(C)c(NC(=O)N[C@@H](CO)c2ccccc2)c1 [CBK306609] | 103.539
CCOC(=O)C1CCN(S(=O)(=O)c2ccc(OC)c(C)c2C)CC1 [CBK268955] | 140.53
Cc1cc(-c2nn3c(-c4ccccc4)nnc3s2)c2ccccc2n1 [CBK267187] | 134.912
OCc1ccc(-c2cncc(-c3ccc(O)cc3)n2)cc1 [CBK123792] | 143.591
CCCOc1ccc(CCNc2ncnc(N)n2)cc1 [CBK262744] | 89.9856
O=C(O)c1ccc2[nH]c3c(c2c1)CCCC3 [CBK001252] | 115.439
Cc1ccc(OCC(=O)NNC(=O)c2ccco2)cc1 [CBK261800] | 116.35

Another view of 24 compounds above:
Compound,% of control remaining [%]
CCCc1[nH]nc(O)c1-c1ccc(OC)cc1 [CBK075135],123.832
C=CCn1c(-c2sc(NC(=O)c3cc4ccccc4s3)nc2C)n[nH]c1=S [CBK295303],133.115
O=C1COc2ccc(S(=O)(=O)NCCOc3ccccc3)cc2N1 [CBK268480],121.618
Cn1cc(CNCC2CCN(c3ccccc3)C2)c(-c2ccncc2)n1 (stereo not shown) [CBK306317],100.725
COC(=O)CC[C@H]1CNC(=O)[C@@H]2[C@@H](CCN2S(C)(=O)=O)N1C [CBK289019],111.115
Cc1ccccc1CN1CC[C@H]2[C@@H](C1)[C@H](c1ccsc1)CN2C(=O)c1ccccc1 [CBK285618],102.732
COc1ccccc1CNc1nccc(-n2ccc(C)n2)n1 [CBK288611],103.871
C(=C\c1nccnc1OC(c1ccccc1)c1ccccc1)/c1ccccc1 [CBK106878],133.401
O=C(O)CCC(=O)Nc1ccccc1C(=O)Nc1ccccc1 [CBK058571],114.753
O=C1N=C(NC2CCCCCC2)SC1CC(=O)N1CCCC1 (stereo not shown) [CBK063342],92.2054
Cc1ccnc(NCC2CCN(c3ccc4nnnn4n3)C2)c1 (stereo not shown) [CBK306348],138.403
Cc1cccc(C)c1NC(=O)CN1CCCN(c2nccc(OCC3COc4ccccc4O3)n2)CC1 (stereo not shown) [CBK083974],174.455
CSCCC(=O)Nc1ccc2ncccc2c1 [CBK159818],105.463
COc1ccc(CN2C(=S)N(c3ccc(Cl)cc3)[C@H]3[C@@H]2[C@H]2OC(=O)[C@@H]3C[C@H]2O)cc1 [CBK288935],110.384
Cc1sc2nc(C(C)N3CCN(Cc4ccco4)CC3)[nH]c(=O)c2c1C (stereo not shown) [CBK306066],116.359
c1ccc2c(c1)NC(c1ccncc1)n1nnnc1-2 (stereo not shown) [CBK288171],120.685
CCc1c(C)nc2ccccc2c1SCCOC(=O)Nc1ccc(OC)cc1 [CBK155554T],103.279
O=C1c2cccc3cccc(c23)C(=O)N1CCN1CCN(S(=O)(=O)c2ccccc2[N+](=O)[O-])CC1 [CBK262530],95.9936
COc1ccc(NC(=O)CC2NC3CCCCC3NC2=O)cc1 (stereo not shown) [CBK266488],112.138
CCCCN(C(C)=O)c1c(CC)nc2ccc(C(=O)NCc3ccccc3OC)cn12 [CBK145761],105.875
CCCNC(=O)c1ccc(C)c(NC(=O)N[C@@H](CO)c2ccccc2)c1 [CBK306609],103.539
CCOC(=O)C1CCN(S(=O)(=O)c2ccc(OC)c(C)c2C)CC1 [CBK268955],140.53
Cc1cc(-c2nn3c(-c4ccccc4)nnc3s2)c2ccccc2n1 [CBK267187],134.912
OCc1ccc(-c2cncc(-c3ccc(O)cc3)n2)cc1 [CBK123792],143.591

(further entries)

Compound | % of control remaining [%]
O=C(O)CCN/C(=N\S(=O)(=O)c1ccccc1)c1ccccc1 [CBK266111] | 162.602
CC1CCN(Cn2nc(COc3ccccc3)n(-c3ccccc3)c2=S)CC1 [CBK264247] | 130.617
O=C(Oc1cccc(-c2cnc3ccccc3n2)c1)c1ccc(S(=O)(=O)N2CCCCC2)cc1 [CBK267785] | 126.494
O=C(Nc1cc(Oc2cccnc2)cc([N+](=O)[O-])c1)c1cc2nc(-c3ccco3)cc(C(F)(F)F)n2n1 [CBK262534] | 91.3818
CCOC(=O)c1c(NC(=O)CSc2n[nH]c(N)n2)sc(C)c1C [CBK266412] | 110.323
Cc1ccc(-n2nc(C(=O)O)c(C)c(C#N)c2=O)cc1C [CBK286987] | 139.407
O=C(O)CSc1nnc(SCc2cccc3ccccc23)s1 [CBK266215] | 151.726
C/C(=N/NC(=O)C[N+](C)(C)C)c1nn(-c2ccc(Cl)cc2)nc1C [CBK008258C] | 102.977
Cc1nnc(-c2cccc(S(=O)(=O)Nc3nnc(C(F)(F)F)s3)c2)o1 [CBK062014] | 110.921
O=C(NCc1cc[nH]n1)N1CCCN(Cc2cccs2)CC1 [CBK305645] | 120.287
COc1ccccc1-c1cnc2[nH]c(=O)n(Cc3ccc(F)c(Cl)c3)c2n1 [CBK064662] | 121.902
CCN(CC)CCN(C(=O)N1CCCC1)c1c(C)cccc1C [CBK023237C] | 117.823
NS(=O)(=O)c1ccc(CCNC(=O)c2cccnc2)cc1 [CBK268158] | 118.041
CCOc1cccc(-c2cn3ccnc3c(NCCc3ccccn3)n2)c1 [CBK066586] | 186.193
O=C(C1=C(O)C(=O)N(CCCN2CCOCC2)C1c1ccccn1)c1ccc(Cl)cc1 (stereo not shown) [CBK266445] | 110.986
CC(C)(C)NC(=O)CN1C(=O)N2CCCN=C2c2ccc(Cl)cc21 [CBK284391] | 117.622
Cc1cc(NC(=O)CCc2c(C)nc(N3CCOCC3)[nH]c2=O)no1 [CBK305636] | 120.142
N#Cc1cccc(CN2CCC(Cc3ccccc3)CC2)c1 [CBK126380] | 127.861
COC(=O)c1ccccc1NC(=O)Nc1ccc(N2CCOCC2)c2nonc12 [CBK266830] | 224.411
CC1CCN(S(=O)(=O)c2ccc(NC(=O)CCn3c(=O)oc4ccccc43)cc2)CC1 [CBK268040] | 129.278
Cc1cc(NC(=O)c2cc(C)[nH]n2)c2ccccc2n1 [CBK116260] | 146.457
CCOC(=O)Cn1nnc(-c2ccc(Cl)cc2)n1 [CBK069596] | 110.978
CCN(CC)CCN1CCN(c2cncc(-c3cccc(N)c3)n2)CC1 [CBK065751] | 168.271
O=C(O)c1ccc(S(=O)(=O)N(CC2CC=CCC2)CC2CCCO2)cc1 (stereo not shown) [CBK286685] | 125.324
CC(=O)Nc1cccc(-c2cnc(N)c(NCc3cccnc3)n2)c1 [CBK063562] | 159.537
O=C(NC(n1cnc2c(N3CCCCC3)ncnc21)C(Cl)(Cl)Cl)c1ccccc1 (stereo not shown) [CBK261038] | 62.7276
COc1cc(CNn2cnnc2S)ccc1OCC(N)=O [CBK265877] | 100

Compound | % of control remaining [%]
c1coc(-c2nccnc2NCCc2c[nH]c3ccccc23)c1 [CBK037316] | 154.613
CC(=O)c1cccc(-n2c(CCC(=O)O)ccc2-c2ccc(Br)cc2)c1 [CBK131888] | 121.521
O=c1[nH]nc2c(SC3CCCCC3)nccn12 [CBK288471] | 102.057
CNC(=O)CN1CCN(c2cc(C#N)ccc2C(F)(F)F)CC1=O [CBK306441] | 134.069
C1CN=C(SCCCCSC2=NCCCN2)NC1 [CBK278223B] | 119.023
CC(C)n1c(CN2CCOCC2)nc2c1c(=O)n(C)c(=O)n2C [CBK306201] | 120.856
Nc1nc(C2CC(N)C2)cc(N2CCC(Oc3ccccc3Cl)CC2)n1 (stereo not shown) [CBK307356] | 56.6571
O=C(Nc1cccnc1)N1CCN(Cc2ccccc2)CC1 [CBK155663] | 114.806
Cc1ccc(C2CCCN2C(=O)c2cccn(CC(=O)NC3CCCCC3)c2=O)cc1C (stereo not shown) [CBK286009] | 118.627
CC(=O)Nc1ccc(S(=O)(=O)N2CCN(c3ccc([N+](=O)[O-])c(N4CCOCC4)c3)CC2)cc1 [CBK264764] | 111.069
Cc1ccc(OCc2nnc(SCC(=O)c3ccc(Br)cc3)n2N)cc1 [CBK266482] | 147.521
COc1ccc(C(C)C)cc1-c1cnc2cccnc2c1N [CBK081211] | 102.659
CC(=O)Nc1ccc(S(=O)(=O)N2CCN(S(=O)(=O)N3CCCCCC3)CC2)cc1 [CBK268983] | 133.226
Cc1ccc(O)c(NC(=S)NC(=O)COc2ccccc2)c1 [CBK264373] | 100
Fc1ccccc1/C=N/Nc1nccnc1Cl [CBK261711] | 81.1531
O=C(c1cccs1)N1CCC[C@H]1[C@H](O)c1nccs1 [CBK284285] | 101.977
CC(C)(C)OC(=O)N1CCCN(c2ccc(S(=O)(=O)c3ccccc3)c([N+](=O)[O-])c2)CC1 [CBK138502] | 78.5405
CCOc1cc(/C=C2\SC(=N)NC2=O)cc(Cl)c1O [CBK262955] | 100
Cn1c(C(=O)O)ccc1S(=O)(=O)NCc1ccco1 [CBK113686] | 89.823
CC(=O)N1C[C@@H](c2cccc(C)c2)[C@@H]2CN(Cc3cccnc3)CC[C@@H]21 [CBK283368] | 138.156
COc1ccccc1CC(=O)Nc1ncccc1OCCCC#N [CBK304952] | 92.4936
CC(=O)Oc1ccc(NC(=O)CC2Nc3cc(C)c(C)cc3NC2=O)cc1 (stereo not shown) [CBK263088] | 93.4629
Cc1cnc(Nc2cccc(C3CCCN3C(=O)CCOc3ccccc3C)n2)s1 (stereo not shown) [CBK285972] | 101.174
COc1ccc(CCC(=O)N2CCCC2c2ccc(Cc3ccccc3F)cn2)cc1 (stereo not shown) [CBK285992] | 99.5494
COCCn1ccnc1C1CCN(C(=O)Cc2ccc(O)c(F)c2)CC1 [CBK306649] | 143.172
